Experiment: Evaluation on odor of curable compound
Parameters: key: A: no odor or not uncomfortable if any; B: uncomfortable with peculiar odor; C: Very uncomfortable with peculiar odor
Details: about 100 mg in closed 50 mL glass bin, about 30 minutes at room temperature

SMILES	Odor (no odor)
C=CC(=O)N(CC)CC [Comparative Example 1a, N,N-diethylacrylamide, reference compound]	C
C=CC(=O)N(C)CCOC [Comparative Example 2a, reference compound]	A
C=CC(=O)N(CC(=O)OCC)CC(=O)OCC [Comparative Example 3a, reference compound]	A
C=CC(=O)N(C)CCOC(C)=O [Example 1a]	A
C=CC(=O)N(C)CCOC(=O)C(C)C [Example 2a]	A
C=CC(=O)N(CCOC(C)=O)C(C)(C)C [Example 3a]	A
C=CC(=O)N(C)CC(=O)OC [Example 4a]	A
C=CC(=O)N(C)CC(=O)OCC [Example 5a]	A
C=CC(=O)N(C)CC(=O)OCCCC [Example 6a]	A
C=CC(=O)N(C)CC(=O)OC(C)C [Example 7a]	A
C=CC(=O)N(CCC)CC(=O)OCC [Example 8a]	A
C=CC(=O)N(CC(=O)OC)C(C)C [Example 9a]	A
C=CC(=O)N(CC(=O)OC(C)C)C(C)C [Example 10a]	A
C=CC(=O)N(CCCCCC)CC(=O)OC [Example 11a]	A
C=CC(=O)N(CCCCCC)CC(=O)OCCCC [Example 12a]	A
C=CC(=O)N(C)C(C)C(=O)OC (stereo not drawn) [Example 13a]	A
C=CC(=O)N(C)C(C)C(=O)OCC (stereo not drawn) [Example 14a]	A
C=CC(=O)N(C)C(C)C(=O)OC(C)C (stereo not drawn) [Example 15a]	A
